Data set [1] addresses MBP-AaERF1 (Artemisia annua) (UniProt G8GKQ7). As to the kind of experiment: EMSA. As to conditions: EMSA per protocol of Zhang et al. [45]; pH and temperature not given; recombinant protein; residues 1-253; protein details: N-terminal MBP (pMAL-C2); label: 3' biotin. On the technique in general: In EMSA bound probe runs differently from free probe, usually more slowly.
A further data set relates to MBP. The data set is described as follows: EMSA. Particulars: EMSA per protocol of Zhang et al. [45]; pH and temperature not given; recombinant protein; label: 3' biotin.

Construct, isoform or probe ends are uncertain for at least one entry. Negatives hold for the conditions tested.

On to “CATAAGATCCTCCACT (double strand) [mGCC box probe]”, for which, in data set [1], the binding result was “no binding”.
Take “CATAAGAGCCGCCACT (double strand) [GCC box probe]”: the values for the binding result (in data set [1]; in the data set with MBP) were “binds” and “no binding”, respectively.

These data come from PMC3585223.
